Laboratory results: PubChem BioAssay AID1224828 (NIAID, 2016)
Shown is a random part of about 17,000 reagents tested. In the full data, 762 (4.5%) were called active. 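Active calls include both raised and lowered p65 entry, mostly lowered; wells with fewer than 50 cells lack a z-score.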 Raw values are not corrected between plates. A reagent listed more than once was tested more than once; the source does not tell the runs apart. Reagent sequences are not shown.

Purpose: 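Find genes required for NF-kappaB p65 moving into the nucleus after LPS in mouse macrophages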 (primary screen)
Cells: mouse RAW264.7 G9 macrophage reporter cells (GFP-p65, Tnf promoter-mCherry)
Knock-down reagent: siRNA pool against mouse genes, 100 nM
Duration: 2 days siRNA transfection, then 40 min LPS before fixation
Treatment: LPS (Salmonella minnesota R595) at 10 ng/ml
Read-out: 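Microscopy ratio of nuclear to perinuclear-ring GFP-p65 signal, scaled to the plate median; gene score is the average of two replicate robust z-scores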
Reading the numbers: p65 translocation robust z-score: higher = more nuclear NF-kappaB p65 after LPS than the plate median; nuclear/cytoplasmic p65 ratio: higher = more nuclear NF-kappaB p65
Hit rule: 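Active if robust z is above 3.3 (negative regulators) or below -1.56, the Tlr4 control median (positive regulators); activity score 50 or more; control wells not called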
Meaning of the calls: active = hit (p65 shift raised or lowered); inactive = no clear change

| gene | p65 translocation robust z-score | nuclear/cytoplasmic p65 ratio, rep 1 | nuclear/cytoplasmic p65 ratio, rep 2 | low cell count flag | Call |
| --- | --- | --- | --- | --- | --- |
| Limk1 (GeneID 16885) | -1.6 | 1.53 | 1.17 | enough cells to score | active |
| Stx16 (GeneID 228960) | -1.02 | 1.28 | 1.28 | enough cells to score | inactive |
| 1700123K08Rik (GeneID 76658) | – | 1.44 | 1.79 | fewer than 50 cells per well; well left out of scoring | inactive |
| Rgs14 (GeneID 51791) | -1.79 | 1.26 | 1.26 | enough cells to score | active |
| Elane (GeneID 50701) | -0.03 | 1.41 | 1.36 | enough cells to score | inactive |
| Tmod3 (GeneID 50875) | 0.95 | 1.49 | 1.22 | enough cells to score | inactive |
| Cers1 (GeneID 93898) | -1.96 | 1.2 | 1.23 | enough cells to score | active |
| Ranbp3l (GeneID 223332) | 0.25 | 1.44 | 1.59 | enough cells to score | inactive |
| Snx18 (GeneID 170625) | – | 1.7 | 1.18 | fewer than 50 cells per well; well left out of scoring | inactive |
| Dhodh (GeneID 56749) | 0.68 | 1.6 | 1.44 | enough cells to score | inactive |
| Atp5pd (GeneID 71679) | 0.05 | 1.63 | 1.62 | enough cells to score | inactive |
| Bax (GeneID 12028) | -1.12 | 1.36 | 1.52 | enough cells to score | inactive |
| Gng13 (GeneID 64337) | -0.29 | 1.6 | 1.5 | enough cells to score | inactive |
| Apex1 (GeneID 11792) | 0.03 | 1.64 | 1.61 | enough cells to score | inactive |
| Atxn2 (GeneID 20239) | 0 | 1.51 | 1.52 | enough cells to score | inactive |
| Traf2 (GeneID 22030) | -0.14 | 1.5 | 1.48 | enough cells to score | inactive |
| Dynlt1b (GeneID 21648) | 0.61 | 1.67 | 1.54 | enough cells to score | inactive |
| Slc25a21 (GeneID 217593) | -0.49 | 1.29 | 1.24 | enough cells to score | inactive |
| Pdrg1 (GeneID 68559) | 0.38 | 1.4 | 1.54 | enough cells to score | inactive |
| 1700018F24Rik (GeneID 69396) | – | 1.4 | 0.98 | fewer than 50 cells per well; well left out of scoring | inactive |
| Trappc5 (GeneID 66682) | -0.14 | 1.32 | 1.2 | enough cells to score | inactive |
| Or5d47 (GeneID 117005) | -1.64 | 1.22 | 1.11 | enough cells to score | active |
| Trem2 (GeneID 83433) | -0.04 | 1.5 | 1.5 | enough cells to score | inactive |
| Casp7 (GeneID 12369) | 0.26 | 1.65 | 1.66 | enough cells to score | inactive |
| Selenoo (GeneID 223776) | -0.05 | 1.52 | 1.48 | enough cells to score | inactive |
| Kbtbd12 (GeneID 74589) | -0.43 | 1.25 | 1.21 | enough cells to score | inactive |
| Fzd4 (GeneID 14366) | 0.63 | 1.59 | 1.72 | enough cells to score | inactive |
| Susd3 (GeneID 66329) | – | 1.52 | 1.56 | fewer than 50 cells per well; well left out of scoring | inactive |
| Fbxw9 (GeneID 68628) | 0.69 | 1.58 | 1.66 | enough cells to score | inactive |
| Plk1 (GeneID 18817) | – | 0 | 1.3 | fewer than 50 cells per well; well left out of scoring | inactive |
| 2900052N01Rik (GeneID 73040) | – | 0.997 | 1.86 | fewer than 50 cells per well; well left out of scoring | inactive |
| Tas2r104 (GeneID 387340) | 2.24 | 1.65 | 1.19 | enough cells to score | inactive |
| Thap1 (GeneID 73754) | – | 1.51 | 1.2 | fewer than 50 cells per well; well left out of scoring | inactive |
| 5930403N24Rik (GeneID 100040846) | 0.72 | 1.38 | 1.64 | enough cells to score | inactive |
| Zbtb7a (GeneID 16969) | 0.07 | 1.6 | 1.44 | enough cells to score | inactive |
| Aplf (GeneID 72103) | -0.16 | 1.43 | 1.29 | enough cells to score | inactive |
| Clnk (GeneID 27278) | 1 | 1.9 | 1.78 | enough cells to score | inactive |
| Acad10 (GeneID 71985) | 0.17 | 1.74 | 1.38 | enough cells to score | inactive |
| Acad10 (GeneID 71985) | 0.16 | 1.42 | 1.2 | enough cells to score | inactive |
| 1700128F08Rik (GeneID 76669) | -2.91 | 1.11 | 1.04 | enough cells to score | active |
| Srst (GeneID 20819) | 2.06 | 1.65 | 1.5 | enough cells to score | inactive |
| Ppm1a (GeneID 19042) | 0.47 | 1.56 | 1.47 | enough cells to score | inactive |
| Lefty2 (GeneID 320202) | 1.18 | 1.64 | 1.5 | enough cells to score | inactive |
| Card6 (GeneID 239319) | 0.11 | 1.62 | 1.64 | enough cells to score | inactive |
| Npsr1 (GeneID 319239) | -0.31 | 1.39 | 1.41 | enough cells to score | inactive |
| Pcdhgb5 (GeneID 93702) | 2.36 | 1.8 | 1.48 | enough cells to score | inactive |
| Cables2 (GeneID 252966) | – | 1.19 | 1.81 | fewer than 50 cells per well; well left out of scoring | inactive |
| Dis3l (GeneID 213550) | 1.32 | 1.59 | 1.9 | enough cells to score | inactive |
| Lypd6b (GeneID 71897) | -2.26 | 1.07 | 1.07 | enough cells to score | active |
| Aoc1l2 (GeneID 69761) | 0.04 | 1.58 | 1.42 | enough cells to score | inactive |
| Dll1 (GeneID 13388) | -0.61 | 1.5 | 1.2 | enough cells to score | inactive |
| Lrrn3 (GeneID 16981) | 0.01 | 1.75 | 1.52 | enough cells to score | inactive |
| Vasn (GeneID 246154) | – | 1.11 | 1.19 | fewer than 50 cells per well; well left out of scoring | inactive |
| Acsl6 (GeneID 216739) | 1.68 | 1.87 | 1.88 | enough cells to score | inactive |
| 4931429L15Rik (GeneID 74361) | – | 1.03 | 0.908 | fewer than 50 cells per well; well left out of scoring | inactive |
| Csprs (GeneID 114564) | 0.11 | 1.66 | 1.73 | enough cells to score | inactive |
| Pycr2 (GeneID 69051) | -0.67 | 1.43 | 1.41 | enough cells to score | inactive |
| 1600012H06Rik (GeneID 67912) | – | 1.12 | 1.18 | fewer than 50 cells per well; well left out of scoring | inactive |
| Edem2 (GeneID 108687) | -0.19 | 1.59 | 1.58 | enough cells to score | inactive |
